Earlier results in US20100210792A1, “DRUG DELIVERY” (priority 2006, published 2010).
At least one structure is not confirmed: it was looked up by name or label, or the drawing left a doubt.

Details: Table 1 drug list

Structure (SMILES)	Hydrophobic
CCCC1O[C@@H]2C[C@H]3[C@@H]4CCC5=CC(=O)C=C[C@]5(C)[C@H]4[C@@H](O)C[C@]3(C)[C@]2(C(=O)CO)O1 (stereo partly drawn) [Budesonide]	YES
Cc1ccc(-c2cc(C(F)(F)F)nn2-c2ccc(S(N)(=O)=O)cc2)cc1 [Celecoxib]	YES
COc1ccc2[nH]c([S+]([O-])Cc3ncc(C)c(OC)c3C)nc2c1 (stereo not drawn) [Omeprazole]	YES
